Laboratory results taken from article PMC6523311 (Pharmaceutics, 2019).

What was measured:
[1] = general procedure: Fmoc solid-phase peptide synthesis; 2-chlorotrityl chloride resin loaded with 0.96 mmol/g Fmoc-Gly-OH; DIC/Oxyma Pure; HATU/HOAt/DIPEA (cyclisation); PyBOP/HOBt/DIPEA (conjugation); details: for final purity (method not given): 220 nm
[2] = general procedure: Fmoc solid-phase peptide synthesis; 2-chlorotrityl chloride resin; DIC/Oxyma Pure; HATU/HOAt/DIPEA (cyclisation); PyBOP/HOBt/DIPEA (conjugation); details: whole synthesis

Substance	conjugation yield ([1]; conjugation step) [%]	final purity (method not given) ([1]; conjugation step) [% purity]	other results
Alkynyl-PEG5-Val-Cit-Gly-Pro-Cry-55gly	78	>99	–
c(RGDfK)-PEG5-Val-Cit-Gly-Pro-Cry-55gly	54	>99	–
Alkynyl-PEG5-Val-Cit-Gly-Pro-Cy5.5	43	91	–
c(RGDfK)-PEG5-Val-Cit-Gly-Pro-Cy5.5	68	>99	–
c(RGDfK)-PEG5-Val-Cit-PABC-Cy5.5	62	>99	–
c(RGDfK)-PEG5-Val-Cit-PABC-Cry-55gly	64	>99	–
Alkynyl-PEG5-Val-Cit-Gly-Pro	–	–	final purity (method not given) ([1]; whole synthesis, scale of the general procedure 250 mg resin): 96% purity; isolated mass [2]: 77 mg; isolated yield ([2]; scale of the general procedure 250 mg resin): 32%
PEPTIDE1{R.G.D.[dF].K}|PEPTIDE2{[N3Pr]}$PEPTIDE1,PEPTIDE1,1:R1-5:R2|PEPTIDE1,PEPTIDE2,5:R3-1:R2$$$V2.0	–	–	cyclisation yield ([1]; cyclisation step): 10%; final purity (method not given) ([1]; cyclisation step): >99% purity

For some assays here: HELM strings list residues between dots; [ac] is acetyl, [am] amide, other brackets name non-standard units.
